The entries are a selection whose mix differs from that of the whole data set.

Chains of the proteins cited; added tags and fusions are not shown. Lines headed by an entry give the natural chain unless they say otherwise; changes in a name come on top.
UniProt Q9HCU4: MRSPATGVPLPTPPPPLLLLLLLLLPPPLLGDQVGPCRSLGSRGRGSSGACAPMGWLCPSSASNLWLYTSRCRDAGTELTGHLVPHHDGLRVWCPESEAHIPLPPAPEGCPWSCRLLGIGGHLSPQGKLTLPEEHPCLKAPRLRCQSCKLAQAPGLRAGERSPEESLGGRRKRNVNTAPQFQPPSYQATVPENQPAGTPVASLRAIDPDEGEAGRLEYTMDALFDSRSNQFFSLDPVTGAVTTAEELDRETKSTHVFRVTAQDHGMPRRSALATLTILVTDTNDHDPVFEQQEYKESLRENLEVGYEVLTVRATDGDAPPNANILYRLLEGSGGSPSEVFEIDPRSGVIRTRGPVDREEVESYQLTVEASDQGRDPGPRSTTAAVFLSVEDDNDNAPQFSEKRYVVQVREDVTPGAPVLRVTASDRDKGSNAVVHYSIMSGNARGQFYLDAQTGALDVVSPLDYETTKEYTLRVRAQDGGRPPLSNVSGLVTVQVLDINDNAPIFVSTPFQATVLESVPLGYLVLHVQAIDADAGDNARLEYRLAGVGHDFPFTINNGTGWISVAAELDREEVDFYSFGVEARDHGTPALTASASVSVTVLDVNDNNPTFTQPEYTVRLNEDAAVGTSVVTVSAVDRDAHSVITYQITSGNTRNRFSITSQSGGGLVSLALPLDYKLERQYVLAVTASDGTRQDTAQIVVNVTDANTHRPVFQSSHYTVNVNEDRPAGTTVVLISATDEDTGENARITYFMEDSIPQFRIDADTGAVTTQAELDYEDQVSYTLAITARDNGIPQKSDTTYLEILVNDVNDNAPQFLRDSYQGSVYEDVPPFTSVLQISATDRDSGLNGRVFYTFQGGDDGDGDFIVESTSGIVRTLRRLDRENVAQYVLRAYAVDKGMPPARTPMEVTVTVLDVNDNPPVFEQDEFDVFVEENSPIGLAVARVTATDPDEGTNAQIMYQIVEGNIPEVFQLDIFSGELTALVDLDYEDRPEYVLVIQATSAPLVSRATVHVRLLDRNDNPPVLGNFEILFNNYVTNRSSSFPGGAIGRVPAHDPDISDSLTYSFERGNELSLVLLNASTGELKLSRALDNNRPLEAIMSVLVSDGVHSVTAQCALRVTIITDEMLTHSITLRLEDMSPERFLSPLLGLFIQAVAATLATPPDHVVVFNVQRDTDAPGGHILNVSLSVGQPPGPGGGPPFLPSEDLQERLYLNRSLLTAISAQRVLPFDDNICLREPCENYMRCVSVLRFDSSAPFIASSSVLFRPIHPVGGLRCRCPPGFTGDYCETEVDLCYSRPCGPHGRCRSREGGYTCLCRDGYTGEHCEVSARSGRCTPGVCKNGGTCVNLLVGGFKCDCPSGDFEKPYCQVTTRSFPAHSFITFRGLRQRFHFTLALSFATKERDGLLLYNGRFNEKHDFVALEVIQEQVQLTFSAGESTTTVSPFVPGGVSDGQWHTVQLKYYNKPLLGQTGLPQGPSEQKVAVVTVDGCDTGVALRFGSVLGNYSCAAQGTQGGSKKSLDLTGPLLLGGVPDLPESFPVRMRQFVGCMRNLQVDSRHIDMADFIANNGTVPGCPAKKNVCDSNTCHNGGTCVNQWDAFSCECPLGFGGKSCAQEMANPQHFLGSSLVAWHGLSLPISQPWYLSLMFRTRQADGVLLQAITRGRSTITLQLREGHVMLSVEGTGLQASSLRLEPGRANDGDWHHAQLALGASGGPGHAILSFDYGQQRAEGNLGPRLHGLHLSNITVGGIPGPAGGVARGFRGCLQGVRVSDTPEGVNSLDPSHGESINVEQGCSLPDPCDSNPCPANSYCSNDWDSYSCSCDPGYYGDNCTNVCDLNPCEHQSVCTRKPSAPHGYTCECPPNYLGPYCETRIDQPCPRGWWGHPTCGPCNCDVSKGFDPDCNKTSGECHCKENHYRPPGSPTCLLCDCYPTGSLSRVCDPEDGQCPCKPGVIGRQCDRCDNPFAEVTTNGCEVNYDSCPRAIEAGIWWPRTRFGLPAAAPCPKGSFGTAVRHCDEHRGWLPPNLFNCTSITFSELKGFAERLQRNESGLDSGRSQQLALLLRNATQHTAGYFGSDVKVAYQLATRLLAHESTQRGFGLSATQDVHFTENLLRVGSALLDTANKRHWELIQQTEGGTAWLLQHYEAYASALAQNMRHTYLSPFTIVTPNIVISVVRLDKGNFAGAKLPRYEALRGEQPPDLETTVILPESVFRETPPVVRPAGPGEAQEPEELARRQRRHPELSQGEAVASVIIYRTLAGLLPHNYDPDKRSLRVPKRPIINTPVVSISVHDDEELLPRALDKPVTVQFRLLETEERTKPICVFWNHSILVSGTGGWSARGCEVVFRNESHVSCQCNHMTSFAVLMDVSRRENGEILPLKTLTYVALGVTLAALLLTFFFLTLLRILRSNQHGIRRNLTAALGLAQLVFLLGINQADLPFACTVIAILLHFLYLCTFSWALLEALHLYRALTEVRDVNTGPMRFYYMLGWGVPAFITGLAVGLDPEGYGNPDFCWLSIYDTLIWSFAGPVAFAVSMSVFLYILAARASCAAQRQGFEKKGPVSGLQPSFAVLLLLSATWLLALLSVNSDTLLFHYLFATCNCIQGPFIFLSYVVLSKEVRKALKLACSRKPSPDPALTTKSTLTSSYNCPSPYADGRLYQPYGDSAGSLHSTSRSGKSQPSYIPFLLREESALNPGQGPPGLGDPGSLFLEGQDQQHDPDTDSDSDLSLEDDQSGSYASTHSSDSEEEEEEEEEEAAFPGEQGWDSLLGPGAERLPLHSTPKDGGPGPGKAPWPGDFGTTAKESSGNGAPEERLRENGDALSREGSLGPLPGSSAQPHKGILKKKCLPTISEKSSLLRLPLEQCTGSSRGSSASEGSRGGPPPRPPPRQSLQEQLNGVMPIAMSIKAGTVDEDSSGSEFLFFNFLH
UniProt Q9HAV4: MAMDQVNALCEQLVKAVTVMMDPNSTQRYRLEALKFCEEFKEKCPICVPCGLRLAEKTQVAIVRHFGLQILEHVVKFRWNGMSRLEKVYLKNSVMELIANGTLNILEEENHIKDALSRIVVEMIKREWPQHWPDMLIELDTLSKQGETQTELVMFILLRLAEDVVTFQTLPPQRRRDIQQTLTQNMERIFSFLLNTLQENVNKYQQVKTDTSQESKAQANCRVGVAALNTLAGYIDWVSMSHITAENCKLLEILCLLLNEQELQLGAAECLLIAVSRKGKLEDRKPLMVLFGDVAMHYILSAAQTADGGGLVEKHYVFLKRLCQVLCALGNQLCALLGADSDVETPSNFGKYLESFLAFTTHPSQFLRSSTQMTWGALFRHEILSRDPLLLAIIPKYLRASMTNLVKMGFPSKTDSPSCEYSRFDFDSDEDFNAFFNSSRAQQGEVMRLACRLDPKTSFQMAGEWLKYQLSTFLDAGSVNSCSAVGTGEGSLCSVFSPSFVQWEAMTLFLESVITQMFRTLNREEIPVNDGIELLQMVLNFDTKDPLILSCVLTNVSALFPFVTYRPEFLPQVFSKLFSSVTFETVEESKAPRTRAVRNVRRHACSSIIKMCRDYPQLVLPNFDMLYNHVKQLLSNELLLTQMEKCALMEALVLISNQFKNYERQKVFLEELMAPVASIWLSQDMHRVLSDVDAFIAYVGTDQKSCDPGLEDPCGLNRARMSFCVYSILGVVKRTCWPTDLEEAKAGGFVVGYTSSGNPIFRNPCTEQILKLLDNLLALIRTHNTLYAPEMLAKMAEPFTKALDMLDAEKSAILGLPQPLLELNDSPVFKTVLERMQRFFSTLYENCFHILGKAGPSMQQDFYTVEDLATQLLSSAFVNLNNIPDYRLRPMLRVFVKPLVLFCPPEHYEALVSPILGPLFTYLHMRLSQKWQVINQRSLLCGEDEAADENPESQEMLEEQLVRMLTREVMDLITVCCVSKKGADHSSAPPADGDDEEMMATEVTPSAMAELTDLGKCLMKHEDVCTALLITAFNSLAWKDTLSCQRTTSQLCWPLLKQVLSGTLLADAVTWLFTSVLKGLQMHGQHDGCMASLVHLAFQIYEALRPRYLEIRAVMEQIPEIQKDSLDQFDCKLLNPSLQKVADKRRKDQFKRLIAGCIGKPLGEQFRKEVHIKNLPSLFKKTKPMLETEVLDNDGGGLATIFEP
UniProt Q9NUP1: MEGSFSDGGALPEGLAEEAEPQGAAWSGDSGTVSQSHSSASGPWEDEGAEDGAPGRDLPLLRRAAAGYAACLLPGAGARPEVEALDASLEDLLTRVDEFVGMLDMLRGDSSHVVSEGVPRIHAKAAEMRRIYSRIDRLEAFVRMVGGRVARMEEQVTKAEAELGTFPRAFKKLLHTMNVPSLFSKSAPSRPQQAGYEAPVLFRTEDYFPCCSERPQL
UniProt Q9H7E9: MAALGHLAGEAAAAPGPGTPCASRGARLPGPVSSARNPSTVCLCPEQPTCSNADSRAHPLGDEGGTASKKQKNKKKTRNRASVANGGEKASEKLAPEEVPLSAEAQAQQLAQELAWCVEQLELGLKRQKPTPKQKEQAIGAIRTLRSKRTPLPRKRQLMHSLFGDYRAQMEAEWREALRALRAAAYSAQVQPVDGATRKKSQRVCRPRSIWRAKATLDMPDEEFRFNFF
UniProt Q9H4L4: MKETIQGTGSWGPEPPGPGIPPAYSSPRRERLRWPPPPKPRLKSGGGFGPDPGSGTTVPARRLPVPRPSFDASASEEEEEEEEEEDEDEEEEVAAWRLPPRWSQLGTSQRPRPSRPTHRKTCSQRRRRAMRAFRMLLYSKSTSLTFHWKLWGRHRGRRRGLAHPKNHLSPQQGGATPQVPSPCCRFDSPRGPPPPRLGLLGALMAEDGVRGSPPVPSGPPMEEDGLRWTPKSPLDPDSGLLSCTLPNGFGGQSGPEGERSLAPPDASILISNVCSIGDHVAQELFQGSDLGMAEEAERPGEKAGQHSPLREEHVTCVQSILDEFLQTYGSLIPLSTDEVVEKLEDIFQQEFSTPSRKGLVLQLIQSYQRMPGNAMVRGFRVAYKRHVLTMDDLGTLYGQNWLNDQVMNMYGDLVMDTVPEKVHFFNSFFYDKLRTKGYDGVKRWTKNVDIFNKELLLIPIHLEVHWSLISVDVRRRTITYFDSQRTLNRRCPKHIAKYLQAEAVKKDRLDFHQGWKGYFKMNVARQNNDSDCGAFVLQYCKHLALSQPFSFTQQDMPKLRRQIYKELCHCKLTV
UniProt Q9NR45: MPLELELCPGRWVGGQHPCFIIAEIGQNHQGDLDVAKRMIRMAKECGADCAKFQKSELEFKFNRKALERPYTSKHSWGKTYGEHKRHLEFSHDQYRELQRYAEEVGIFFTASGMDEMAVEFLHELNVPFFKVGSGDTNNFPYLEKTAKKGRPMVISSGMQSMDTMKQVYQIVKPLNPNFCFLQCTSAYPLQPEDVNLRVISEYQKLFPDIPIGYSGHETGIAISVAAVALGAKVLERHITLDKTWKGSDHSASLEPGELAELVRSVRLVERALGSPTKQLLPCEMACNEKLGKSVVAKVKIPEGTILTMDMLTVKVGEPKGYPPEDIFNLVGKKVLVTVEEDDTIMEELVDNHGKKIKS
UniProt Q9HCS7: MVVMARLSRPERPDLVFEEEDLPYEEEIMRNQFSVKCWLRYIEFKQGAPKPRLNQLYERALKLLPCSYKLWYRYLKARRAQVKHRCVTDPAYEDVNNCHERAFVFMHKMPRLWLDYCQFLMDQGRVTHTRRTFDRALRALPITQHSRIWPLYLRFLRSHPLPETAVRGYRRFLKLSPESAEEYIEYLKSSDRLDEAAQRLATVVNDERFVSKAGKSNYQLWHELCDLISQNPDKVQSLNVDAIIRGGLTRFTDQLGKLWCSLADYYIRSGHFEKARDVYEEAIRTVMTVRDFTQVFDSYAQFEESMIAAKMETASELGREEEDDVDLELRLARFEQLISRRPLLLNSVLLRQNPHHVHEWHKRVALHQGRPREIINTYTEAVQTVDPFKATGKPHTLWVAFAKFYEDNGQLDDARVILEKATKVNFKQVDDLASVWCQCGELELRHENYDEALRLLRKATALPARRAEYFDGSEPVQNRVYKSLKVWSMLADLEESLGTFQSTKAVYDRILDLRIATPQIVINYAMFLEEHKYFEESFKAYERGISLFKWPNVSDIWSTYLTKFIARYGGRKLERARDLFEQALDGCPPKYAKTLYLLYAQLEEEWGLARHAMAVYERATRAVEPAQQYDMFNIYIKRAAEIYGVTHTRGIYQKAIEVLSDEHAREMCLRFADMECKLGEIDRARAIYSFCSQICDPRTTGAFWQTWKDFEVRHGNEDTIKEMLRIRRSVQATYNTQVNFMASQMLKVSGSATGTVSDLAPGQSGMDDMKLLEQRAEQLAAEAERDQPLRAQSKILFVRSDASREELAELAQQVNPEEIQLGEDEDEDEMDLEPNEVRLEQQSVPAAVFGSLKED

Data on 37 targets can be found in the supplement of paper PMC11006884.

Compound in this experiment: COC(=O)C#Cc1ccccc1 [methyl 3-phenylpropiolate]
Description: log2 ratio of iodoacetamide-alkyne labeling of the cysteine site, DMSO over compound (competition); higher = stronger covalent engagement of the cysteine by the compound, active = 1 or more. The following applies: 500 µM; treatment time 1 h; system: HEK293T cell lysate. The method, boiled down: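 For each cysteine, the log2 competition ratio is mean control-channel reporter intensity over mean compound-channel reporter intensity. HEK293T lysate (2 mg/mL) was exposed to vehicle or electrophile (500 µM, 1 h, ambient temperature), labelled with iodoacetamide alkyne (1 h), clicked to sCIP-TMT reagents, digested overnight with trypsin at 37 °C, streptavidin-enriched and analysed by Orbitrap Eclipse LC-MS/MS with FAIMS and FragPipe. Cysteines quantified in only one of three replicates, each with duplicate channels, were excluded.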
Turning to UniProt Q9H6R7_C507, the “log2 ratio of iodoacetamide-alkyne labeling” value (shortened to “log2 ratio”) was inactive: 0.708.
Consider MDN1 C3528 (UniProt Q9NU22), for which the “log2 ratio” value was inactive: 0.153.
Consider UniProt Q9H6R7_C472, for which the “log2 ratio” value was inactive: 0.561.
Regarding DSN1 C287 (UniProt Q9H410), the “log2 ratio” value is inactive: 0.233.
Take CELSR2 C2646 (UniProt Q9HCU4): the “log2 ratio” value is inactive: 0.492.
Consider XPO5 C1052 (UniProt Q9HAV4), for which the “log2 ratio” value was inactive: 0.0567.
In the case of UniProt Q9NUP1_C211, the “log2 ratio” value is inactive: 0.821.
Regarding MDN1 C1839 (UniProt Q9NU22), the “log2 ratio” value was inactive: 0.281.
As for LRRC40 C54 (UniProt Q9H9A6), the figure is inactive: 0.555; as for MVB12B C267 (UniProt Q9H7P6), inactive: 0.00514; as for C8orf33 C117 (UniProt Q9H7E9), inactive: 0.0832.
As for SENP3 C532 (UniProt Q9H4L4), the figure is inactive: 0.0982.
As to GOLPH3L C70 (UniProt Q9H4A5), the “log2 ratio” value is inactive: 0.00611.
As for NANS C8 (UniProt Q9NR45), the figure is inactive: 0.0794; as for XPNPEP1 C308 (UniProt Q9NQW7), inactive: 0.061; as for DIAPH3 C868 (UniProt Q9NSV4), inactive: 0.0696.
To STRN4 C17 (UniProt Q9NRL3) belongs inactive: 0.231; to IARS2 C414 (UniProt Q9NSE4), inactive: 0.144.
PPAN C432 (UniProt Q9NQ55): the “log2 ratio” value was inactive: 0.73.
For XAB2 C66 (UniProt Q9HCS7), the “log2 ratio” value was inactive: 0.489.
With CENPH C35 (UniProt Q9H3R5), the “log2 ratio” value was inactive: 0.442.
As for GBA2 C311 (UniProt Q9HCG7), the “log2 ratio” value was inactive: 0.239.
Turning to GPHN C293 (UniProt Q9NQX3), the “log2 ratio” value is active: 1.12.
Turning to BAZ1A C586 (UniProt Q9NRL2), the “log2 ratio” value was inactive: 0.287.
As for PPAN C391 (UniProt Q9NQ55), the “log2 ratio” value is inactive: 0.505.
To ATG3 C264 (UniProt Q9NT62) belongs inactive: 0.294; to HEATR1 C1237 (UniProt Q9H583), inactive: 0.166.
As to RTN4 C1101 (UniProt Q9NQC3), the “log2 ratio” value is inactive: 0.12.
Turning to STRN4 C562 (UniProt Q9NRL3), the “log2 ratio” value is inactive: 0.455.
Turning to XPO5 C1025 (UniProt Q9HAV4), the “log2 ratio” value was inactive: 0.313.
As to UniProt Q9H668_C8, the “log2 ratio” value is inactive: 0.685.
Take COPS7B C240 (UniProt Q9H9Q2): the “log2 ratio” value was inactive: 0.186.
In the case of XPO5 C1044 (UniProt Q9HAV4), the “log2 ratio” value was inactive: 0.313.
As for FARSB C362 (UniProt Q9NSD9), the figure is inactive: 0.414.
C17orf75 C296 (UniProt Q9HAS0): the “log2 ratio” value is inactive: 0.689.
To MDN1 C991 (UniProt Q9NU22) belongs inactive: 0.17; to BIRC6 C3404 (UniProt Q9NR09), inactive: 0.493.
